Data as given in paper doi:10.1101/2022.10.30.514401.
Where two headings read alike, the source gives them in different places. Results are given in words; binding and its absence hold for the method and conditions named. In cells and extracts the contact can be indirect. For part of these data: A result given as binding can be weak or reduced; the word gives no strength.

Amino acid sequences for entries named in this document (tags omitted). A change or cut given only in a name is not applied to a line headed by its entry.
UniProt P46938: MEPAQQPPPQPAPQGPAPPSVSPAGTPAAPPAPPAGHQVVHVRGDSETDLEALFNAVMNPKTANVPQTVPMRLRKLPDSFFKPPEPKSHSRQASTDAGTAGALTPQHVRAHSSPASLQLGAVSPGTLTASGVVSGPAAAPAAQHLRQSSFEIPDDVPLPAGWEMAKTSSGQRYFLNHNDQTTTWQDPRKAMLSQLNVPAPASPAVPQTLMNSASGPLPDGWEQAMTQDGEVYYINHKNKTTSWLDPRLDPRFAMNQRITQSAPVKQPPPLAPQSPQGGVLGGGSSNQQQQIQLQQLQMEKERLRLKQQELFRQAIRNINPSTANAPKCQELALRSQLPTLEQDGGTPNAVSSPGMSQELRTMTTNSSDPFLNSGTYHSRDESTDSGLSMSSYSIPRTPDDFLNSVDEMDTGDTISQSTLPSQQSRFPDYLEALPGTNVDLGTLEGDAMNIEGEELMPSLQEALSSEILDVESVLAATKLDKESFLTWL
UniProt P63330: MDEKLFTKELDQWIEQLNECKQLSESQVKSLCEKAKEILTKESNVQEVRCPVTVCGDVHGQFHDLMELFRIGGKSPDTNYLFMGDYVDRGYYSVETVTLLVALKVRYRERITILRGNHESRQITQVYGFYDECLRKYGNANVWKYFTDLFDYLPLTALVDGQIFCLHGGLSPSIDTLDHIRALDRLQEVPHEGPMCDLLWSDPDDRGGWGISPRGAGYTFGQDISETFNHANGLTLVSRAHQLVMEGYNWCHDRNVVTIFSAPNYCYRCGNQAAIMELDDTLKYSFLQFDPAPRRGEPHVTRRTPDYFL

How the values were obtained:
Assay in all cases: co-IP
[1] = target: YAP (pCMV6-YAP, mouse) (mouse) (UniProt P46938)
[2] = target: YAP (pCMV6-YAP, mouse) (mouse) (UniProt P46938); remark: listed apart in the source
[3] = target: YAP (mouse (endogenous in mouse ISCs)) (UniProt P46938)

Row | binding [3] | Substance | binding [1] | binding [2]
1 | – | PP2Ac (pCMV6-Pp2ac, mouse) (from UniProt P63330) (enzyme) | binds | no binding (only with LSR co-expressed)
2 | binds | protein phosphatase 2A catalytic subunit (PP2Ac) (from UniProt P63330) (enzyme) | – | –
